US12600746 (dated 2026)

Assays:
[1] = general procedure: Fmoc solid-phase peptide synthesis; Rink amide; PyBOP / NMM (resin loading); settings: whole synthesis
[2] = general procedure: Fmoc solid-phase peptide synthesis; Rink amide resin; 2-chlorotrityl chloride resin; hydrazine-derivatized 2-chlorotrityl chloride resin; PyBOP / NMM (resin loading)
[3] = general procedure: Fmoc solid-phase peptide synthesis; 2-CTC; PyBOP / NMM (resin loading); settings: whole synthesis
[4] = general procedure: Fmoc solid-phase peptide synthesis; hydrazine-functionalized 2-CTC; PyBOP / NMM (resin loading); settings: whole synthesis
[5] = general procedure: Fmoc solid-phase peptide synthesis; hydrazine-derived 2-CTC; PyBOP / NMM (resin loading); settings: whole synthesis; for isolated yield: based on original resin loading
[6] = Fmoc solid-phase peptide synthesis; hydrazine-derived 2-CTC; PyBOP / NMM (resin loading); settings: whole synthesis, scale 3×250 μmol
[7] = Fmoc solid-phase peptide synthesis; Rink amide; PyBOP / NMM (resin loading); settings: whole synthesis, scale 250 μmol
[8] = scale of the general procedure 200 μmol

(H-USPGYS-NH2)2
isolated mass [1]: 78 mg | isolated yield [1, 8]: 61% yield

Ac-(LYRANA)2CSPGYS-NH2
step yield ([2]; coupling step): 62% yield

Ac-(LYRANV)2CSPGYS-NH2
step yield ([2]; coupling step): 58% yield

Ac-LYRANA-S(CH2)2CO2Et
isolated mass ([3]; scale 730 μmol): 288 mg | isolated yield ([3]; scale 730 μmol): 46%

Ac-LYRANA-SCH2CF3
isolated mass ([4]; scale 480 μmol): 351 mg | isolated yield ([4]; scale 480 μmol): 86%

Ac-LYRANAASPGYS-NH2
step yield ([2]; coupling step): isolated yield 66% | step yield ([2]; coupling step, over two steps): 65% | step yield ([2]; coupling step, run 1): 69% yield | step yield ([2]; coupling step, run 2): 65% yield

Ac-LYRANACSPGYS-NH2
step yield ([2]; coupling step, run 1): 67% | step yield ([2]; coupling step, run 2): 68% | step yield ([2]; coupling step, run 3): isolated yield 68% | step yield ([2]; coupling step, run 4): 67% yield

Ac-LYRANF-SePh
isolated mass [3]: 13.2 mg | isolated yield [3, 8]: 37% yield

Ac-LYRANV-S(CH2)2CO2Et
isolated mass ([3]; scale 350 μmol): 128 mg | isolated yield ([3]; scale 350 μmol): 41%

Ac-LYRANV-SCH2CF3
isolated mass ([4]; scale 640 μmol): 431 mg | isolated yield ([4]; scale 640 μmol): 77%

Ac-LYRANV-SePh
isolated yield [3, 8]: 77% yield

Ac-LYRANVASPGYS-NH2
step yield ([2]; coupling step): isolated yield 66% | step yield ([2]; coupling step, over two steps): 63% | step yield ([2]; coupling step, run 1): 61% yield | step yield ([2]; coupling step, run 2): 63% yield

Ac-LYRANVCSPGYS-NH2
step yield ([2]; coupling step): 65% | step yield ([2]; coupling step, run 1): 67% yield | step yield ([2]; coupling step, run 2): 65% yield

H-(β-SH) DSPGYS-NH2
isolated mass ([1]; scale 50 μmol): 11.8 mg | isolated yield ([1]; scale 50 μmol): 36% yield

H-ASPGYS-NH2
step yield ([2]; late stage modification step): 82% yield

H-ASPMYS-NH2
step yield ([2]; late stage modification step): 74% yield

H-CSPGYS-NH2
isolated mass ([1]; scale 730 μmol): 257 mg | isolated yield ([1]; scale 730 μmol): 57%

H-CSPMYS-NH2
isolated mass ([1]; scale 100 μmol): 17.4 mg | isolated yield ([1]; scale 100 μmol): 22% yield

H-DSPGYS-NH2
step yield ([2]; late stage modification step): 50% yield

H-VSPGYS-NH2
step yield ([2]; late stage modification step): 83% yield

H-[Pen]SPGYS-NH2
isolated mass ([1]; scale 100 μmol): 18.1 mg | isolated yield ([1]; scale 100 μmol): 28% yield

enfuvirtide
step yield ([2]; coupling step): 40%

enfuvirtide(1-18)
isolated yield ([5]; scale 125 μmol): 22% | isolated mass ([5]; scale 125 μmol): 70 mg

enfuvirtide(19-36)
isolated yield ([1]; based on original resin loading, scale 100 μmol): 20% | isolated mass ([1]; scale 100 μmol): 51.6 mg

somatorelin
step yield ([2]; coupling step): 57%

somatorelin(1-18)
isolated mass [6]: 272.0 mg | isolated yield ([5]; scale 3×250 μmol): 14.6%

somatorelin(19-44)
isolated mass [7]: 234.0 mg | isolated yield ([1]; based on original resin loading, scale 250 μmol): 24%

Square brackets hold non-standard residues; d marks the D form. Pen = CC(C)(S)[C@H](N)C(=O)O
